Experimental data as given in the supplement of paper PMC10849652.
Some of the results follow.

The chains behind the UniProt entries cited, without tags or fusion partners. Where a name states a change or a piece, a line headed by the entry shows the natural chain unless it says otherwise.
UniProt Q0VAQ4: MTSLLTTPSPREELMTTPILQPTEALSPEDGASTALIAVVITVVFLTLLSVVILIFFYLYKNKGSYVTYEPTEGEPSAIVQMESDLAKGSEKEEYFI
UniProt Q8NEW0: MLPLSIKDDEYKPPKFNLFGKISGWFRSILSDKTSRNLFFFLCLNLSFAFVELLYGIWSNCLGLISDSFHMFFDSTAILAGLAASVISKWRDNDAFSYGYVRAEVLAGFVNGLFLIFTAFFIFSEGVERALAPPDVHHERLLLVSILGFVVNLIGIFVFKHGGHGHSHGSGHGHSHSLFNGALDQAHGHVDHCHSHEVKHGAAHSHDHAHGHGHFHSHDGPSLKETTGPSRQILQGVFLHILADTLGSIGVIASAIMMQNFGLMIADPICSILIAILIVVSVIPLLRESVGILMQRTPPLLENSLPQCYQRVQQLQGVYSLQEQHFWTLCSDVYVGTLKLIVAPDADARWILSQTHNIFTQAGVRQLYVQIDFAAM
UniProt Q8IXU6: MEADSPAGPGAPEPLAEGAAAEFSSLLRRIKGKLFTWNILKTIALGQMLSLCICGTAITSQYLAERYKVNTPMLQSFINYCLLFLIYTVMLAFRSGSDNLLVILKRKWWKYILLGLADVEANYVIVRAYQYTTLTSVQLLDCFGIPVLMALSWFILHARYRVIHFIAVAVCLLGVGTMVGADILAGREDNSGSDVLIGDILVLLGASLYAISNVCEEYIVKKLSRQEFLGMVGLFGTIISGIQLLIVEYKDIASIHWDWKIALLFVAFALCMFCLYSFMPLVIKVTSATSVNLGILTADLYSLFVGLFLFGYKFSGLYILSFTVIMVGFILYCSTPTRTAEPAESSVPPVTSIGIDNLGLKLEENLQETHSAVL
UniProt Q3KQZ1: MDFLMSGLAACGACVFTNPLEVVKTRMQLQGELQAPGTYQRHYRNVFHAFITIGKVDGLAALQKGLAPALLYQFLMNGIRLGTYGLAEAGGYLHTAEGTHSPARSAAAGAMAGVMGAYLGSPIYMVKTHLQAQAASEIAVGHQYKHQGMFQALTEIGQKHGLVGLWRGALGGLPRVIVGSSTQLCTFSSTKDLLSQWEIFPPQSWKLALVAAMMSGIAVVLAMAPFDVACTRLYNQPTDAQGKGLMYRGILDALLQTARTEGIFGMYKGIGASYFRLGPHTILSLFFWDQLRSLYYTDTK
UniProt F5GZS6: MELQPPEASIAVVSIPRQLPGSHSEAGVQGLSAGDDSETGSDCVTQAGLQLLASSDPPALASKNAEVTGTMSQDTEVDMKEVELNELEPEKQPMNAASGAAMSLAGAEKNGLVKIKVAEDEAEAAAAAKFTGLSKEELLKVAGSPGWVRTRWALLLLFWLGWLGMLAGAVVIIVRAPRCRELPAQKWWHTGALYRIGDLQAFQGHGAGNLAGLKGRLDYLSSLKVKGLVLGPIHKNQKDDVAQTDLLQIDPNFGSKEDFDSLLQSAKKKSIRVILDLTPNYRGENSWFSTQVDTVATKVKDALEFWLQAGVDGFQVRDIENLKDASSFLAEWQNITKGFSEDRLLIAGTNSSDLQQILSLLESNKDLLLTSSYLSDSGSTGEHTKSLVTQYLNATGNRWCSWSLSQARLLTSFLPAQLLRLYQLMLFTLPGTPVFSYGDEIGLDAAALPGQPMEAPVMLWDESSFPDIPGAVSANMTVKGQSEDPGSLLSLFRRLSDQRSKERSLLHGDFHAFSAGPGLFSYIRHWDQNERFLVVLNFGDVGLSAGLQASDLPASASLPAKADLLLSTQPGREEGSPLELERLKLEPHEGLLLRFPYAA
UniProt Q96QE2: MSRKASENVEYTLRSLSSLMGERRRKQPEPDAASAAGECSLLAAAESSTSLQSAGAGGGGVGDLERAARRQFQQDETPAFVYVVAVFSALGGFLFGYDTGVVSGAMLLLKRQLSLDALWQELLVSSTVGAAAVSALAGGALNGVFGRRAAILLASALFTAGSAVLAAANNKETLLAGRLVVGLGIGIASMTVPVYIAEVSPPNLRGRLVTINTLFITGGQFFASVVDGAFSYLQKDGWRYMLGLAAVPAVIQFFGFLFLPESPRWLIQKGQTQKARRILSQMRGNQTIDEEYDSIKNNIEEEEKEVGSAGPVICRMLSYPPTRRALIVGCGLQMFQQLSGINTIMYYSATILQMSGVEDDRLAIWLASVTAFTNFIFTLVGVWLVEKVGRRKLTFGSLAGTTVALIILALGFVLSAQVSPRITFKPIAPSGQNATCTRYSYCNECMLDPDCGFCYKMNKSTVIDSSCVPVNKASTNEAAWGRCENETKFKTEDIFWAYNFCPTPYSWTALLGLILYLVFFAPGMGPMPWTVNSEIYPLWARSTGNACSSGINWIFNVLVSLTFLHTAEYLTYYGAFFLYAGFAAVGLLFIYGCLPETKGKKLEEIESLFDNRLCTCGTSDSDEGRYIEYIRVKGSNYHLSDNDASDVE
UniProt Q9Y2E8: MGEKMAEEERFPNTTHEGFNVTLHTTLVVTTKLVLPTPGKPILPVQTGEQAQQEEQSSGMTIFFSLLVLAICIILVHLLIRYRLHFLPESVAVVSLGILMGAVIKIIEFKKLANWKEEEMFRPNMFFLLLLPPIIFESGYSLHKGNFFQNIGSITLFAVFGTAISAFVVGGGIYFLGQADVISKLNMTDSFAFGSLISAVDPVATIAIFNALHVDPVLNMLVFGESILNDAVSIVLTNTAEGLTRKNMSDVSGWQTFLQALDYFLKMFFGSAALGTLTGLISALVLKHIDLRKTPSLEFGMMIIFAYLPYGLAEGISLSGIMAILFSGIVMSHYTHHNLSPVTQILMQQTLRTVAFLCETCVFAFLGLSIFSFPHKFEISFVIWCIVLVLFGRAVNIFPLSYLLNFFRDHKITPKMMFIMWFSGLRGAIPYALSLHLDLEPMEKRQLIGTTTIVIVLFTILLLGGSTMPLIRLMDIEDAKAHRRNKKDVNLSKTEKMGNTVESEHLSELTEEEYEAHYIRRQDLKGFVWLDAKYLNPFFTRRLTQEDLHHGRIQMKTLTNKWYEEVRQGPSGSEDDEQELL
UniProt Q8IY92: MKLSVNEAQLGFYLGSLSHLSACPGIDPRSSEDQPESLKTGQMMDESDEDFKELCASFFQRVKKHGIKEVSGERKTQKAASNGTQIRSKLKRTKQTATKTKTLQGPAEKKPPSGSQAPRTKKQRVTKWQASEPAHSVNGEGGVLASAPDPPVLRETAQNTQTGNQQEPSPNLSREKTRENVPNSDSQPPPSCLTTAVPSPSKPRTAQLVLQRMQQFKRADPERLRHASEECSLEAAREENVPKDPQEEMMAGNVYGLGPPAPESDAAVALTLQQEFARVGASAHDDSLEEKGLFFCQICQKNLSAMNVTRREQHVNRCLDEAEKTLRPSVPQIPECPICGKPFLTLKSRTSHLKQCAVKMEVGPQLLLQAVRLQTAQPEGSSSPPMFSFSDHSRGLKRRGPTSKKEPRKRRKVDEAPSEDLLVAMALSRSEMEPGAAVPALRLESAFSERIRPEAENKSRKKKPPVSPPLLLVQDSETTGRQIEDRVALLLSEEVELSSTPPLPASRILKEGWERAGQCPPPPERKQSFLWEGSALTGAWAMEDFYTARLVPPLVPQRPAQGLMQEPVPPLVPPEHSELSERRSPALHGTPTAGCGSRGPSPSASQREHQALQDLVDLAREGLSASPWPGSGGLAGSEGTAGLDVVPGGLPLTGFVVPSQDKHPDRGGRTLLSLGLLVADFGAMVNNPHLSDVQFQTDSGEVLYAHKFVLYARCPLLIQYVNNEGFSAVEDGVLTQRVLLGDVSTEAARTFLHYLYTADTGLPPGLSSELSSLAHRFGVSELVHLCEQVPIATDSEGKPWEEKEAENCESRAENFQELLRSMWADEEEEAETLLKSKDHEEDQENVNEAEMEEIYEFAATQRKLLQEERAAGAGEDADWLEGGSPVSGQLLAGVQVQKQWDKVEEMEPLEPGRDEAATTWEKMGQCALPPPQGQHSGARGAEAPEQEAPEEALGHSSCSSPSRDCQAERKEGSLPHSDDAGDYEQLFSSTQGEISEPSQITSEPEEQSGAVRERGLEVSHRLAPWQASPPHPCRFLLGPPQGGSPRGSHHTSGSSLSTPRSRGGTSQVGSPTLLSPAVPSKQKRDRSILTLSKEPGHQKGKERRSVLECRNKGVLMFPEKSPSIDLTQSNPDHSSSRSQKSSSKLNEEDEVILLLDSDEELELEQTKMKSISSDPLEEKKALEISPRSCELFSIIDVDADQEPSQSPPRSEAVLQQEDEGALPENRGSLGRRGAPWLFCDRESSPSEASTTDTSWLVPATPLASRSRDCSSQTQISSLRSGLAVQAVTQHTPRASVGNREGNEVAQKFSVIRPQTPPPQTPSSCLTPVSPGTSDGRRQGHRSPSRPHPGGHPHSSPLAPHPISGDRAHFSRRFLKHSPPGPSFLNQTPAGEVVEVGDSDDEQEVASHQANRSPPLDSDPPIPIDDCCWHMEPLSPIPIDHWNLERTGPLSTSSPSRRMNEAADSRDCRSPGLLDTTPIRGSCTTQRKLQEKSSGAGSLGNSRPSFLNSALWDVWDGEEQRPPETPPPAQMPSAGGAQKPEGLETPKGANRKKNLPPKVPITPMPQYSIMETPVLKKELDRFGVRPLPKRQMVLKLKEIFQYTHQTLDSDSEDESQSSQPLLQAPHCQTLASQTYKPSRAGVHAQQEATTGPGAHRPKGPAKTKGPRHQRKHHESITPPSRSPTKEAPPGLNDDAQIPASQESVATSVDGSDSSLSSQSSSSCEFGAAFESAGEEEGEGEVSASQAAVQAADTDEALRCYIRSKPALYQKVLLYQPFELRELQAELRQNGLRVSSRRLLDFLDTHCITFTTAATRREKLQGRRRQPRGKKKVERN
UniProt Q6P1K1: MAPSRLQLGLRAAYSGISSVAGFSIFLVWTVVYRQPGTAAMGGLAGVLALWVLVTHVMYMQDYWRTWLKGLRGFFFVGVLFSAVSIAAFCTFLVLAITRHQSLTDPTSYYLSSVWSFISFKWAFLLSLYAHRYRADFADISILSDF
UniProt P0CK96: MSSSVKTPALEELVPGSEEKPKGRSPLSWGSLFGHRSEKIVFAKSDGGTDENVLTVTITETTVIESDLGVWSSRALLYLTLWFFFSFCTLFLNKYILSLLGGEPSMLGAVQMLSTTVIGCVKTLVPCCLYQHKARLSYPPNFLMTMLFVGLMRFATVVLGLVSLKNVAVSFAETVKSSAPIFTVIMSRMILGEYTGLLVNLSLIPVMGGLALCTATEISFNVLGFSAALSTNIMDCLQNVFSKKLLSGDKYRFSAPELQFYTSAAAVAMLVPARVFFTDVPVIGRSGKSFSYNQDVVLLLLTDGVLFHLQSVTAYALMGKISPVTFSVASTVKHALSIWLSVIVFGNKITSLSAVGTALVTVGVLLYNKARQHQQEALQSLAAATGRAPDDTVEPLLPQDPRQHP
UniProt Q96H72: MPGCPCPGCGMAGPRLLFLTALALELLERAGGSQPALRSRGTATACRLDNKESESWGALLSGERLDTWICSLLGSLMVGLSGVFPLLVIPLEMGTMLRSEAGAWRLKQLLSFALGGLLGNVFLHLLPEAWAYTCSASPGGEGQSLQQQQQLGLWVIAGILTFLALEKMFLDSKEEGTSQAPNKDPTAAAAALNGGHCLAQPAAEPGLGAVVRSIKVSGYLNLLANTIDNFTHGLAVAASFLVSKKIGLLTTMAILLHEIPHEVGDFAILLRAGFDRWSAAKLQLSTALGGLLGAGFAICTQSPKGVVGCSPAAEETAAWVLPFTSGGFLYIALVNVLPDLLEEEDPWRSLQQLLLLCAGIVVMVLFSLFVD
UniProt Q86WA9: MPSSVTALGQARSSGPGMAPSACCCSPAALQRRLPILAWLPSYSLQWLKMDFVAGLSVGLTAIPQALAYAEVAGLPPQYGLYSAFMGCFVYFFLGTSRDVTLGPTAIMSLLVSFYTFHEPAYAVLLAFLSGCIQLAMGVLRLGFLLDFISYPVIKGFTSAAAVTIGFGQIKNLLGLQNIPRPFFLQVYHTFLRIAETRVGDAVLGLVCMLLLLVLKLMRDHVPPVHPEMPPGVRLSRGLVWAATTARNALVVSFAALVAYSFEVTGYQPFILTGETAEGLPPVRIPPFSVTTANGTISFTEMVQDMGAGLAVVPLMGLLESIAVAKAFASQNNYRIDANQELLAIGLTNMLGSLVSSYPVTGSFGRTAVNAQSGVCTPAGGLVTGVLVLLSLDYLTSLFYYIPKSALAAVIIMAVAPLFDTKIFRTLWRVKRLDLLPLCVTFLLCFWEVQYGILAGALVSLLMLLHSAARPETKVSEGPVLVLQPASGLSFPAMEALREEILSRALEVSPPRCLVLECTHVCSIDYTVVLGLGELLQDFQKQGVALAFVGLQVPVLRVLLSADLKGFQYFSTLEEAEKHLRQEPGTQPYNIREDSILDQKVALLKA

How the values were obtained:
Assay in all cases: log2 fold change, soluble protein after heating vs DMSO (PISA); higher = thermal stabilisation; K562 lysate, 10 uM; active = over 0.2 and 3.5 SD of the protein, either way, in both replicates (recomputed)
vorinostat = compound: O=C(CCCCCCC(=O)Nc1ccccc1)NO [vorinostat]
Outline: (§1)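 Pellets of K562 cells were dounce-homogenised in PBS pH 7.4 with 1 mM MgCl2, and the crude extract was held at 1 mg/mL protein for a 30 min treatment with 10 μM compound. Aliquots were heated for 3 min over 48°C-58°C and pooled before NP-40 was added to 0.5% at 4°C. The supernatant from 21,000xg for 90 min was quantified by TMTpro 16plex LC-MS/MS with channel sums equalised. Values are reported from duplicates as log-two fold change in thermal stability relative to solvent controls.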

silmitasertib = compound: O=C(O)c1ccc2c(c1)nc(Nc1cccc(Cl)c1)c1ccncc12 [silmitasertib]
Outline: as §1

[1] = compound: O=C1NC(=O)C(c2cnc3ccccn23)=C1c1cn2c3c(cc(F)cc13)CN(C(=O)N1CCCCC1)CC2
Outline: as §1

entospletinib = compound: c1cn2cc(-c3ccc4cn[nH]c4c3)nc(Nc3ccc(N4CCOCC4)cc3)c2n1 [entospletinib]
Outline: as §1

[2] = compound: NCC(=O)Nc1ccc(-n2nc(C(F)(F)F)cc2-c2ccc3c(ccc4ccccc43)c2)cc1
Outline: as §1

SMAGP (UniProt Q0VAQ4)
log2 fold change (vorinostat): inactive: 0.294
log2 fold change (silmitasertib): inactive: -0.286
log2 fold change [1]: inactive: 0.089
log2 fold change (entospletinib): inactive: 0.017

SLC30A7 (UniProt Q8NEW0)
log2 fold change [2]: inactive: 0.034
log2 fold change [1]: inactive: -0.021
log2 fold change (entospletinib): inactive: -0.301

SLC35F2 (UniProt Q8IXU6)
log2 fold change [2]: inactive: 0.009
log2 fold change (vorinostat): inactive: 0.161
log2 fold change (silmitasertib): inactive: -0.009
log2 fold change (entospletinib): inactive: 0

SLC25A35 (UniProt Q3KQZ1)
log2 fold change [1]: inactive: 0.128
log2 fold change (entospletinib): inactive: 0.003

SLC3A2 (UniProt F5GZS6)
log2 fold change (vorinostat): inactive: -0.164
log2 fold change (silmitasertib): inactive: -0.039
log2 fold change (entospletinib): inactive: 0.086

SLC2A13 (UniProt Q96QE2)
log2 fold change (vorinostat): inactive: 0.157
log2 fold change (silmitasertib): inactive: -0.074
log2 fold change (entospletinib): inactive: 0.096

SLC9A8 isoform 2 (UniProt Q9Y2E8)
log2 fold change (vorinostat): inactive: 0.102
log2 fold change (silmitasertib): inactive: 0.041
log2 fold change [1]: inactive: 0.008

SLX4 (UniProt Q8IY92)
log2 fold change (vorinostat): inactive: 0.08
log2 fold change (silmitasertib): inactive: 0.038

SLC48A1 (UniProt Q6P1K1)
log2 fold change [2]: inactive: -0.026
log2 fold change (vorinostat): inactive: 0.102
log2 fold change (silmitasertib): inactive: -0.107
log2 fold change (entospletinib): inactive: 0.043

SLC46A1 (UniProt Q96NT5)
log2 fold change (vorinostat): inactive: 0.1
log2 fold change (silmitasertib): inactive: -0.051

SLC35E2B (UniProt P0CK96)
log2 fold change [2]: inactive: 0.146
log2 fold change (entospletinib): inactive: -0.134

SLC39A13 (UniProt Q96H72)
log2 fold change (vorinostat): inactive: -0.064
log2 fold change (silmitasertib): inactive: -0.092

SLC26A11 (UniProt Q86WA9)
log2 fold change (vorinostat): inactive: 0.077
log2 fold change (silmitasertib): inactive: 0.128
log2 fold change [1]: inactive: -0.029
